{"source": "patent US6677336B2", "about": "“Substituted piperazine compounds” (CV Therapeutics, Inc., priority 2000, dated 2004)", "system": "mitochondrial fatty acid oxidation (rat heart mitochondria)", "assay": "Palmitoyl CoA oxidation in isolated rat heart mitochondria", "type": "biochemical", "settings": "100 μM compound; 15 min at 30° C; DMSO control", "procedure": "Compounds of this invention were evaluated in a rat heart mitochondiral assay as set forth below.\nRat heart mitochondria were isolated by the method of Nedergard and Cannon (methods in Enzymol. 55, 3, 1979).\nPalmitoyl CoA oxidation—The Palmityl CoA oxidation was carried out in a total volume of 100 micro liters containing the following agents: 110 mM KCl, 33 mM Tris buffer at pH 8, 2 mM KPi, 2 mM MgCl2, 0.1 mM EDTA, 14.7 microM defatted BSA, 0.5 mM malic acid, 13 mM carnitine, 1 mM ADP, 52 micrograms of mitochondrial protein, and 16 microM 1-C14 palmitoyl CoA (Sp. Activity 60 mCi/mmole; 20 microCi/ml, using 5 microliters per assay). The compounds of this invention were added in a DMSO solution at the following concentrations: 100 microM, 30 microM, and 3 microM. In each assay, a DMSO control was used. After 15 min at 30° C., the enzymatic reaction was centrifuged (20,000 g for 1 min), and 70 microliters of the supernatant was added to an activated reverse phase silicic acid column (approximately 0.5 ml of silicic acid). The column was eluted with 2 ml of water, and 0.5 ml of the eluent was used for scintillation counting to determine the amount of C^14 trapped as C^14 bicarbonate ion.", "note": "At least one compound was matched to its structure with a doubt left."}
{"smiles": "COc1ccccc1OC[C@@H](O)CN1C[C@@H]2C[C@H]1CN2CC(=O)Nc1c(C)cccc1C", "note": "[Compound 19, 2-{5-[(2S)-2-hydroxy-3-(2-methoxyphenoxy)propyl](1S,4S)-2,5-diazabicyclo[2.2.1]hept-2-yl}-N-(2,6-dimethylphenyl)acetamide]", "values": [{"measurement": "Inhibition of mitochondrial fatty acid oxidation using palmitoyl CoA as substrate - % of Control", "result": 80, "unit": "%"}]}
